In article doi:10.1101/2025.04.10.648262, “Time-resolved phenotyping at subcellular resolution reveals shared principles and key trade-offs across antimicrobial peptide activities” (bioRxiv, 2026):
Some compounds share one wording; it may come from a single statement. Bridge positions count the residues as written; N and C are the ends. Peptide text beside a SMILES is read from it. * marks the point of attachment. 5TAMRA = CN(C)c1ccc2c(c1)Oc1cc(N(C)C)ccc1C21OC(=O)c2cc(C(=O)*)ccc21

Experiments:
MG1655 cells = assay: Intracellular uptake of 5-TAMRA-AMP conjugates (single-cell fluorescence); type: cell-based, Escherichia coli; settings: 50 nM 5-TAMRA conjugate plus unlabeled AMP at 2X MIC, within 10 min of growth inhibition
[1] = test system: CJW7020 cells (RplA-msfGFP) and CJW7859 cells (HupA-msfGFP); assay: Spatial localization of fluorescently labeled AMPs relative to ribosome and DNA markers (SCF*); type: cell-based, Escherichia coli; settings: unlabeled AMP at 2X MIC plus 5% labeled derivative; late time points

## CC[C@H](C)[C@@H]1NC(=O)CNC(=O)[C@H](CCCNC(=N)N)NC(=O)[C@H](Cc2ccc(O)cc2)NC(=O)[C@@H]2CSSC[C@H](NC1=O)C(=O)N[C@@H](Cc1ccc(O)cc1)C(=O)N[C@@H](CCCNC(=N)N)C(=O)N[C@@H](CCCNC(=N)N)C(=O)N[C@H](C(=O)N[C@@H](CCCNC(=N)N)C(N)=O)CSSC[C@H](NC(=O)[C@H](Cc1c[nH]c3ccccc13)NC(=O)[C@H](CCCCN)NC(=O)c1ccc3c(c1)C(=O)OC31c3ccc(N(C)C)cc3Oc3cc(N(C)C)ccc31)C(=O)N[C@@H](Cc1ccccc1)C(=O)N[C@@H](CCCNC(=N)N)C(=O)N[C@@H](C(C)C)C(=O)N2 [5-TAMRA-Tac1] (5TAMRA-KWCFRVCYRGICYRRCR-NH2; disulfide 3-16, 7-12 (inferred); C-terminus assumed)
MG1655 cells
  Intracellular uptake/accumulation of fluorescent conjugate: rapid uptake and massive intracellular accumulation
[1]
  Intracellular localization of fluorescent conjugate: co-localize with the ribosome signal

## CC[C@H](C)[C@H](NC(=O)CNC(=O)[C@H](CC(=O)O)NC(=O)[C@H](CCCNC(=N)N)NC(=O)[C@@H](NC(=O)[C@H](CC(N)=O)NC(=O)[C@H](CCC(N)=O)NC(=O)CNC(=O)[C@@H](NC(=O)[C@H](CCCCN)NC(=O)[C@H](CCC(=O)O)NC(=O)[C@@H](NC(=O)[C@H](CCCCN)NC(=O)[C@H](CCCCN)NC(=O)[C@H](Cc1ccccc1)NC(=O)[C@H](CC(C)C)NC(=O)[C@H](CCCCN)NC(=O)[C@H](Cc1c[nH]c2ccccc12)NC(=O)[C@H](CCCCN)NC(=O)c1ccc2c(c1)C(=O)OC21c2ccc(N(C)C)cc2Oc2cc(N(C)C)ccc21)[C@@H](C)CC)C(C)C)[C@@H](C)CC)C(=O)N[C@H](C(=O)N[C@@H](CCCCN)C(=O)N[C@@H](C)C(=O)NCC(=O)N1CCC[C@H]1C(=O)N[C@@H](C)C(=O)N[C@H](C(=O)N[C@@H](C)C(=O)N[C@H](C(=O)N[C@H](C(=O)NCC(=O)N[C@@H](CCC(N)=O)C(=O)N[C@@H](C)C(=O)N[C@H](C(=O)N[C@@H](CCC(N)=O)C(=O)N[C@H](C(=O)N[C@@H](C)C(=O)N[C@@H](CCCCN)C(N)=O)[C@@H](C)CC)[C@@H](C)O)C(C)C)C(C)C)C(C)C)[C@@H](C)CC [5-TAMRA-CecA] (5TAMRA-KWKLFKKIEKVGQNIRDGIIKAGPAVAVVGQATQIAK-NH2; C-terminus assumed)
MG1655 cells
  Intracellular uptake/accumulation of fluorescent conjugate: rapid uptake and massive intracellular accumulation
[1]
  Intracellular localization of fluorescent conjugate: co-localize with the ribosome signal

## CC[C@H](C)[C@H](NC(=O)[C@H](CCCCN)NC(=O)[C@H](CCC(=O)O)NC(=O)[C@H](CCCCN)NC(=O)[C@H](CO)NC(=O)[C@H](CCCCN)NC(=O)[C@H](CCCNC(=N)N)NC(=O)[C@H](Cc1ccccc1)NC(=O)[C@H](Cc1ccccc1)NC(=O)[C@H](CC(=O)O)NC(=O)CNC(=O)[C@H](CC(C)C)NC(=O)[C@H](CC(C)C)NC(=O)c1ccc2c(c1)C(=O)OC21c2ccc(N(C)C)cc2Oc2cc(N(C)C)ccc21)C(=O)NCC(=O)N[C@@H](CCCCN)C(=O)N[C@@H](CCC(=O)O)C(=O)N[C@@H](Cc1ccccc1)C(=O)N[C@@H](CCCCN)C(=O)N[C@@H](CCCNC(=N)N)C(=O)N[C@H](C(=O)N[C@H](C(=O)N[C@@H](CCC(N)=O)C(=O)N[C@@H](CCCNC(=N)N)C(=O)N[C@H](C(=O)N[C@@H](CCCCN)C(=O)N[C@@H](CC(=O)O)C(=O)N[C@@H](Cc1ccccc1)C(=O)N[C@@H](CC(C)C)C(=O)N[C@@H](CCCNC(=N)N)C(=O)N[C@@H](CC(N)=O)C(=O)N[C@@H](CC(C)C)C(=O)N[C@H](C(=O)N1CCC[C@H]1C(=O)N[C@@H](CCCNC(=N)N)C(=O)N[C@H](C(=O)N[C@@H](CCC(=O)O)C(=O)N[C@@H](CO)C(=O)O)[C@@H](C)O)C(C)C)[C@@H](C)CC)C(C)C)[C@@H](C)CC [5-TAMRA-LL-37]
MG1655 cells
  Intracellular uptake/accumulation of fluorescent conjugate: rapid uptake and massive intracellular accumulation
[1]
  Intracellular localization of fluorescent conjugate: co-localize with the ribosome signal
